The target of the test is BD-EgTR2 (full-length EgTR2 fused to the Gal4 DNA binding domain) (E. granulosus s.s.). Briefly: two-hybrid; Gal4 system; activation-domain (pGADT7) and DNA-binding-domain (pGBKT7) fusions co-transformed into yeast Y2HGold; selective media, 5 days at 30°C; high stringency SD/-Trp/-Leu/-Ade/-His/X-α-gal/AbA, low stringency SD/-Trp/-Leu/X-α-gal/AbA.

No constants are given. Whether binding was seen depends on the method and setting. Binding can be weak; no strength is given. Sequences can lack the tags named with a protein.

B1: AD-HsBMP2 (human BMP2 fused to the Gal4 activation domain) (ligand, UniProt P12643 1-396)
chain: MVAGTRCLLALLLPQVLLGGAAGLVPELGRRKFAAASSGRPSSQPSDEVLSEFELRLLSMFGLKQRPTPSRDAVVPPYMLDLYRRHSGQPGSPAPDHRLERAASRANTVRSFHHEESLEELPETSGKTTRRFFFNLSSIPTEEFITSAELQVFREQMQDALGNNSSFHHRINIYEIIKPATANSKFPVTRLLDTRLVNQNASRWESFDVTPAVMRWTAQGHANHGFVVEVAHLEEKQGVSKRHVRISRSLHQDEHSWSQIRPLLVTFGHDGKGHPLHKREKRQAKHKQRKRLKSSCKRHPLYVDFSDVGWNDWIVAPPGYHAFYCHGECPFPLADHLNSTNHAIVQTLVNSVNSKIPKACCVPTELSAISMLYLDENEKVVLKNYQDMVVEGCGCR
For the molecule B1, the binding entry is recorded as “binds”.
